Data published in patent US11291205B2, “Microbiocidal picolinamide derivatives” (Syngenta Participations AG, priority 2017, dated 2022).
Some results were stated once for a whole list of compounds, not compound by compound.

System: Puccinia recondita f. sp. tritici
Assay: Puccinia recondita f. sp. tritici / wheat / leaf disc preventative (brown rust)
Type: in vivo
Settings: 200 ppm in the formulation; wheat leaf segments cv. Kanzler; compared to untreated control; 7-9 days after application

Structure (SMILES)	disease control
COc1ccnc(C(=O)N[C@@H](C)C(=O)OC2CCC2(c2ccc(F)cc2)C2CC2)c1O (stereo partly drawn) [I.ar.02, [2-cyclopropyl-2-(4-fluorophenyl)cyclobutyl] (2S)-2-[(3-hydroxy-4-methoxy-pyridine-2-carbonyl)amino]propanoate]	at least 80%
COc1ccnc(C(=O)N[C@@H](C)C(=O)OC2CCC2c2ccc(F)cc2)c1O (stereo partly drawn) [I.e.02, [2-(4-fluorophenyl)cyclobutyl] (2S)-2-[(3-hydroxy-4-methoxy-pyridine-2-carbonyl)amino]propanoate]	at least 80%
COc1ccnc(C(=O)N[C@@H](C)C(=O)OC2CCC2(c2ccc(Cl)cc2)c2ccc(Cl)cc2)c1O (stereo partly drawn) [I.v.02, [2,2-bis(4-chlorophenyl)cyclobutyl] (2S)-2-[(3-hydroxy-4-methoxy-pyridine-2-carbonyl)amino]propanoate]	at least 80%
COc1ccnc(C(=O)N[C@@H](C)C(=O)OC2CCC2c2ccc(Cl)cc2)c1O (stereo partly drawn) [I.f.02, [2-(4-chlorophenyl)cyclobutyl] (2S)-2-[(3-hydroxy-4-methoxy-pyridine-2-carbonyl)amino]propanoate]	at least 80%
COc1cccc(C2(c3cccc(OC)c3)CCC2OC(=O)[C@H](C)NC(=O)c2nccc(OC)c2O)c1 (stereo partly shown) [I.t.02]	at least 80%
COc1ccnc(C(=O)N[C@@H](C)C(=O)OC2CCC2(c2ccc(Cl)cc2)C2CC2)c1O (stereo partly drawn) [I.as.02, [2-(4-chlorophenyl)-2-cyclopropyl-cyclobutyl] (2S)-2-[(3-hydroxy-4-methoxy-pyridine-2-carbonyl)amino]propanoate]	at least 80%
COc1ccnc(C(=O)N[C@@H](C)C(=O)OC2CCC2c2ccc(Cl)cc2Cl)c1O (stereo partly drawn) [I.i.02, [2-(2,4-dichlorophenyl)cyclobutyl] (2S)-2-[(3-hydroxy-4-methoxy-pyridine-2-carbonyl)amino]propanoate]	at least 80%
